Laboratory results published in publication PMC3454344.
No constants are given. Whether binding was seen depends on the method and setting. In cells and extracts the contact can be indirect. Some binding calls cover weakened binding; strength is not graded here.

Amino acid sequences for entries named in this document (tags omitted).
UniProt P70288: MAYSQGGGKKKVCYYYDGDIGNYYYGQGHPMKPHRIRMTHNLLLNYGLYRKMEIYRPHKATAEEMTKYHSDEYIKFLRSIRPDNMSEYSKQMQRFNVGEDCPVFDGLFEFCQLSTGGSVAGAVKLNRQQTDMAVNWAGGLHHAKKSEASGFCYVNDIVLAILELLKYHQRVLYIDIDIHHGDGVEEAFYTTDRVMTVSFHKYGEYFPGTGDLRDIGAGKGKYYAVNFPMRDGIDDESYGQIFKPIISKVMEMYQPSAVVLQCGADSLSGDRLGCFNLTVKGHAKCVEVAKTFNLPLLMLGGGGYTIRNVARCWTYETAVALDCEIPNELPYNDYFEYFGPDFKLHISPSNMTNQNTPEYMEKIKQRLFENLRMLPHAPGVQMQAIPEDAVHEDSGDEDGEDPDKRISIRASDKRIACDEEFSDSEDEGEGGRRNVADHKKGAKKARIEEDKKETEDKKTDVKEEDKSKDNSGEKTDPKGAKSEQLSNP

Biological target: T1, Rb2/p130 (mouse (endogenous in NIH3T3)) (UniProt Q64700)
T1 sequence: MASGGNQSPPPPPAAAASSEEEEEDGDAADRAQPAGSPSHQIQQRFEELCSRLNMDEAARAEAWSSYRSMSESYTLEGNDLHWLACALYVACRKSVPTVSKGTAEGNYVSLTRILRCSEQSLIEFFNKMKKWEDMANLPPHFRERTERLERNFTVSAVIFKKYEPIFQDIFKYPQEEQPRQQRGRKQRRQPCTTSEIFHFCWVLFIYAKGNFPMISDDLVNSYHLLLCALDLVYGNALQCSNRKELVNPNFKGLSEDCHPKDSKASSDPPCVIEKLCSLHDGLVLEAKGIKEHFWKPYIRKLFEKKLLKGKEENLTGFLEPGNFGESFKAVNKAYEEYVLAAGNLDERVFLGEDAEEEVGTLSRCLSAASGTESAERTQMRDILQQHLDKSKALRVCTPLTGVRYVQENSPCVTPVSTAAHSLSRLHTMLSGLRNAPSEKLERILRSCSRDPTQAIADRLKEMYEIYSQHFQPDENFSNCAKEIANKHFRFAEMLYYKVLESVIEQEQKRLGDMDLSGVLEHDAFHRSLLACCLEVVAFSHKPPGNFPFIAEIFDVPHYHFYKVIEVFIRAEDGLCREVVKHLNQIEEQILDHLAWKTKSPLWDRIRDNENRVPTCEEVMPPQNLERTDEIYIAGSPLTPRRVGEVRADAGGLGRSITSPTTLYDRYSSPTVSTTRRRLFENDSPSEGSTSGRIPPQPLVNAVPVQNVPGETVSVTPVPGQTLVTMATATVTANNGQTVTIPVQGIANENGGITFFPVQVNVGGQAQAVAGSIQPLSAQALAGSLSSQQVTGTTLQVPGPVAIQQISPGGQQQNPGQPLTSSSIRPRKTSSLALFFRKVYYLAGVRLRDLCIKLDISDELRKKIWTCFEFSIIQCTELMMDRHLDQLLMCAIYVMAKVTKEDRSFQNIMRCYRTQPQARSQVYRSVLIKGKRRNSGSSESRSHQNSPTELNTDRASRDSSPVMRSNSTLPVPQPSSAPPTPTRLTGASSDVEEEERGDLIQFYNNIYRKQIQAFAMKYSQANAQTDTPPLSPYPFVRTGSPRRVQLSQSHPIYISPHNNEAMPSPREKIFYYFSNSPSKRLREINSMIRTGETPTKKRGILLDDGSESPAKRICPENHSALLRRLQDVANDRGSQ
Assay: co-IP; nuclear extract of S-phase NIH3T3 cells (16 h after re-addition of fully supplemented medium); antibody 2.5 ug/ml for 60 min at 4 C, Protein G Sepharose in IP-buffer (PBS, 1% Triton-X-100, 1 mM DTT, 0.2 mM PMSF, 1 mM NaF) for 2 h at 4 C, 4 washes; SDS-PAGE and immunoblotting

In the case of “deacetylase HDAC II (from UniProt P70288 1-488) (enzyme)”, the binding is reported as “binds”.
